Laboratory results published in PubChem BioAssay AID651640 (Broad Institute, 2012).
Screen size: about 350,000 compounds; about 6,000 (1.7%) were called active. Inconclusive means that the source gave no clear call. Such entries were picked first, then a sample of the others. Rule as the data show it: active = CPE inhibition above about 20% (passing the limit was not always enough); inconclusive = no clear call, values can overlap the other calls; tested in BHK-21 cells.

Assay: protection of cells from dengue 2 killing – plate reader, single concentration, primary screen (AID 651640);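 also: 0% = median of neutral control wells and 100% = median of positive control wells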
Details: DENV2-infected cells, cytopathic effect rescue, at 9.99 µM, hits give high values

SMILES | CPE inhibition
CCOc1ccc(CCNC(=O)c2ccc(C)c(NC3=NC4CS(=O)(=O)CC4S3)c2)cc1 (stereo unspecified) | inconclusive: 20.7%
C[C@@H]1CCCCO[C@@H](CN(C)C(=O)Nc2cccc3ccccc23)[C@H](C)CN([C@@H](C)CO)C(=O)c2cc(NC(=O)c3ccccc3)ccc2O1 | inactive: -9.75%
C[C@@H]1CN([C@@H](C)CO)C(=O)c2cc(NC(=O)NC3CCCCC3)ccc2O[C@@H]1CN(C)C(=O)Nc1ccccc1 | inactive: -2.99%
O=C(N[C@H]1CC[C@H](CCNC(=O)c2ccccc2F)O[C@H]1CO)c1cnccn1 | inactive: 0.635%
COc1ccc(S(=O)(=O)Nc2ccc3c(c2)C(=O)N([C@H](C)CO)C[C@@H](C)[C@@H](CN(C)S(=O)(=O)c2ccccc2)OCCCC[C@H](C)O3)cc1 | inactive: 11.6%
C[C@@H]1CN([C@@H](C)CO)S(=O)(=O)c2ccc(C#CC(C)(C)O)cc2O[C@@H]1CN(C)C | inconclusive: 21.6%
Cc1ccc(C(NC(=O)C2CCN(Cc3ccc(Cl)c(Cl)c3)CC2)c2ccccn2)cc1 (stereo unspecified) | inconclusive: 36.6%
CCCNC(=O)C1(C)CCCN(C(=O)C2(c3ccc(Cl)cc3)CCCC2)C1 (stereo unspecified) | inconclusive: 42.3%
O=c1[nH]c2cc(Cl)c(Br)cc2o1 | active: 157%
CC(C)(C)OC(=O)N(CCc1ccccc1)Cc1ccccc1OCc1cccc(NC(=O)/C=C/c2ccccc2)c1 | inconclusive: 45.5%
CC(C)CC#Cc1cnc2c(c1)C(=O)N([C@H](C)CO)C[C@@H](C)[C@H](CN(C)C(=O)c1ccccc1)O2 | inactive: 6.84%
COc1ccc(C(=O)Nc2ccc(OC)c([N+](=O)[O-])c2)cc1Br | inconclusive: 25.5%
C[C@H](CO)N1C[C@H](C)[C@@H](CN(C)S(=O)(=O)c2cn(C)cn2)Oc2ccc(NC(=O)CCCCCC(=O)Nc3ccccc3N)cc2CC1=O | inactive: 4.63%
CCC1=C(OC(=O)N(CC)CC)N2C(=O)OC(=NCCOC)[C@]2(Cc2ccccc2)[C@H]2C1=CC[C@H]1C(=O)N(CC)C(=O)[C@H]12 | active: 21.1%
CNC[C@@H]1Oc2ccc(NC(=O)Nc3ccc(F)cc3)cc2C(=O)N([C@H](C)CO)C[C@H]1C | inconclusive: 35.3%
CN(C)c1ccc(SC#N)cc1 | inconclusive: 25.1%
C[C@@H]1CN([C@@H](C)CO)C(=O)c2cccc(NS(=O)(=O)c3cccs3)c2O[C@H]1CN(C)C(=O)Nc1ccc(C(F)(F)F)cc1 | inactive: 2.84%
CC(=O)c1ccc(NC(=O)CSc2nccn2C)cc1 | inconclusive: 39%
CC(C)c1ccc(OCC(O)CN2CCCC2)cc1 (stereo unspecified) | inconclusive: 20.2%
C/C(=N\NC(=O)c1ccc(CSc2cccc3cccnc23)cc1)C1CCCCC1 | active: 102%
CCOc1ccc2nc(SCC(=O)Nc3ccc4c(c3)OCO4)sc2c1 | inconclusive: 34.7%
CN(Cc1ccccc1)C(=O)CN1C(=O)NC2(CCCCCCC2)C1=O | inconclusive: 42.7%
C[C@@H]1CCCCO[C@@H](CN(C)S(=O)(=O)c2ccc(Cl)cc2)[C@@H](C)CN([C@H](C)CO)C(=O)c2cc(NS(C)(=O)=O)ccc2O1 | active: 21.6%

Individual results from the entries so far.
In CPE inhibition, COc1ccc(C(=O)Nc2ccc(OC)c([N+](=O)[O-])c2)cc1Br is entered as inconclusive: 25.5%
In CPE inhibition, O=c1[nH]c2cc(Cl)c(Br)cc2o1 is entered as active: 157%

The listing continues:

SMILES | CPE inhibition
COCC(=O)N1CCCCN2[C@H](CO)[C@H](c3ccc(C#Cc4ccc(OC)cc4)cc3)[C@@H]2C1 | active: 39.5%
Cc1nc(-c2ccccc2)sc1C(=O)NS(=O)(=O)c1ccc(CN2CCN(c3ccccc3)CC2)cc1 | inconclusive: 32.8%
COc1cc2c(cc1O)C(c1cccs1)N(Cc1sc3ccccc3c1Cl)CC2 (stereo unspecified) | inconclusive: 60.6%
CC1(c2ccccc2)NC(=O)N(CC(=O)N2CCN(S(=O)(=O)c3cccc(C(F)(F)F)c3)CC2)C1=O (stereo unspecified) | inconclusive: 25.8%
O=C(C1CC1)N1CC[C@@H]2[C@H]1c1cc(Br)ccc1N[C@@H]2CO | active: 35.6%
Cc1cc(C)c(-c2c(O)c3ccccc3n(C)c2=O)c(C)c1 | active: 72%
C[C@@H]1CN([C@H](C)CO)C(=O)c2cc(NC(=O)Cc3ccccc3)ccc2O[C@@H](C)CCCCO[C@H]1CN(C)Cc1ccccc1 | inconclusive: 26%
CC1=NN(C(=O)c2c(Br)c(C)nn2C)C(O)(C(F)(F)F)C1 (stereo unspecified) | inconclusive: 20.5%
Cc1cn([C@H]2C[C@H](O)[C@@H](CCC(=O)NCCc3ccc4ccccc4c3)O2)c(=O)[nH]c1=O | inconclusive: 101%
COc1cc(Br)c(C(=O)c2nccc3cc(OC)c(OC)cc23)cc1OC | inconclusive: 30.4%
COc1ccccc1-c1cc(=O)c2c(O)ccc([N+](=O)[O-])c2o1 | inconclusive: 33.9%
COc1ccc(CCNC(=O)COc2cccc(-n3cnnn3)c2)cc1 | inconclusive: 25.4%
Cc1ccccc1S(=O)(=O)N(C)C[C@@H]1OCc2ccccc2-c2c(n(C)c3ccccc23)C(=O)N([C@@H](C)CO)C[C@@H]1C | inconclusive: 22.5%
O=C(OCc1ccc(F)cc1)c1cc(S(=O)(=O)N2CCCCC2)ccc1N1CCOCC1 | inconclusive: 23.3%
Cc1ccc(CCC(=O)Nc2ccccc2C(=O)O)o1 | inconclusive: 22.3%
CN1CC(=O)N=C1N | inconclusive: 71.6%
CCc1ccc(-c2cc3c(=O)n(CC(=O)NCCCN4CCN(CC)CC4)nc(C)n3n2)cc1 | inconclusive: 27.1%
COc1ccc2oc(C(=O)N(C)Cc3ccc4c(c3)OCCO4)c(C)c2c1 | inconclusive: 21.6%
CCn1nc(NC(C)=O)c2cc3cccc(C)c3nc21 | inactive: 8.23%
Cc1noc(C)c1NC(=O)Nc1ccc2c(c1)C(=O)N([C@H](C)CO)C[C@H](C)[C@H](CN(C)CC1CCCCC1)OCCCC[C@H](C)O2 | inconclusive: 39.1%
O=S(=O)(Nc1ccccc1F)c1ccc(Cl)nc1 | inconclusive: 57.6%
Cc1noc(C)c1NC(=O)Nc1ccc2c(c1)C(=O)N([C@H](C)CO)C[C@@H](C)[C@H](CN(C)C(=O)Nc1ccc3c(c1)OCO3)OCCCC[C@@H](C)O2 | inactive: 5.49%
O=C(Cc1ccccc1F)Nc1ccc(S(=O)(=O)N2CCCC2)cc1 | inconclusive: 32.8%

Sorted by molecular weight (falling): three of the compounds above.
SMILES | CPE inhibition
Cc1ccccc1S(=O)(=O)N(C)C[C@@H]1OCc2ccccc2-c2c(n(C)c3ccccc23)C(=O)N([C@@H](C)CO)C[C@@H]1C | inconclusive: 22.5%
COCC(=O)N1CCCCN2[C@H](CO)[C@H](c3ccc(C#Cc4ccc(OC)cc4)cc3)[C@@H]2C1 | active: 39.5%
Cc1cn([C@H]2C[C@H](O)[C@@H](CCC(=O)NCCc3ccc4ccccc4c3)O2)c(=O)[nH]c1=O | inconclusive: 101%
